Results are given in words; binding and its absence hold for the method and conditions named. Some results given as binding are weak or reduced against the parent protein; the word gives no strength.

For this experiment, the target named is Streptavidin (UniProt P22629). The experiment is described as follows: phage display panning against streptavidin, Sanger sequencing of single clones.
Turning to KNWGVPMNMDCHPMCAKCHE [SEQ ID NO 26], the binding entry is listed as “binds”.

As to YDDCHPMNPSQCLPPQFGES [SEQ ID NO 19], the binding result is “binds”. The value for PIVKYITFDPFDDCHPQVPC [SEQ ID NO 20] was “binds”; that for VGECHPQGGLPMGMCEYQDP [SEQ ID NO 30] was “binds”; that for APYHPMDIHPCRHPQYPTDC [SEQ ID NO 18] was “binds”.

As to GRECHPQFETDQSVLGQCWP [SEQ ID NO 39], the binding entry was “binds”. Under FWKCHPQFGQCHEGMEGDKY [SEQ ID NO 38] stands “binds”; under GRDCHPQFNGMCLMLDRARN [SEQ ID NO 22], “binds”.

As for EPNVMPNPWTKCHPMRDKCQ [SEQ ID NO 36], the binding result is “binds”. Under PFQCHPQNGPCMYEAVPKPN [SEQ ID NO 37] stands “binds”; under RMGEIDGGKFCHPQRDKCTN [SEQ ID NO 29], “binds”; under AETPGWGQMTPMFCHPQNRC [SEQ ID NO 33], “binds”.

Regarding DRSVESDKHEPACHPQYGKC [SEQ ID NO 25], the binding entry is listed as “binds”. The value for SDMCHPQSGAYCYWPSHVDC [SEQ ID NO 31] was “binds”. Under NPHDMTANESQCHPQFGACK [SEQ ID NO 23] stands “binds”. As for AEWETHDTFDNHPQVEEMRD [SEQ ID NO 28], the binding entry was “binds”.

Regarding RMGEIDGGKFCHPQRDKCTN [SEQ ID NO 27], the binding result is given as “binds”. The value for NPDMPARTLHCHPMGSREKC [SEQ ID NO 32] was “binds”. Under IQPCHPQVWDGRCNVLNHQG [SEQ ID NO 21] stands “binds”. As to HAFSWEQDNLPCHPQFGECN [SEQ ID NO 24], the binding result is recorded as “binds”. The value for AVGDHPQGPHDSMHLLESDR [SEQ ID NO 40] was “binds”; that for HAFSWEQDNLPCHPQFGECN [SEQ ID NO 34] was “binds”.

The values above are taken from patent US20170166886A1.
